At least one compound was matched to its structure with a doubt left.
Assays:
[1] = Thermal properties by Differential Scanning Calorimetry (DSC); conditions: for Tmelt: fenofibrate melting
[2] = Dissolution profile of itraconazole in 0.05 M sodium lauryl sulfate; format: physicochemical
[3] = enthalpy of fenofibrate melting per gram of fenofibrate, Table 3
[4] = per gram of fenofibrate, Table 11

SMILES	ΔHmelt [1, 3]	Tmelt ([1]; Table 3)	Tmelt ([1]; Table 11)	ΔHmelt [1, 4]	% of dissolved itraconazole ([2]; 10 min, 100 mg itraconazole in 900 ml 0.05 M sodium lauryl sulfate, 37° C., 100 rpm)	% of dissolved itraconazole ([2]; 30 min)	% of dissolved itraconazole ([2]; 60 min)	% of dissolved itraconazole ([2]; 90 min)
CC(C)OC(=O)C(C)(C)Oc1ccc(C(=O)c2ccc(Cl)cc2)cc1 [Example 1, Fenofibrate]	71.8 J/gFF	81.2 °C	81.2 °C	71.8 J/g				
CC(C)OC(=O)C(C)(C)Oc1ccc(C(=O)c2ccc(Cl)cc2)cc1 [Fenofibrate starting material, Fenofibrate]	74.3 J/gFF	81.9 °C	81.9 °C	74.3 J/g				
CCC(C)n1ncn(-c2ccc(N3CCN(c4ccc(OCC5COC(Cn6cncn6)(c6ccc(Cl)cc6Cl)O5)cc4)CC3)cc2)c1=O (stereo not drawn) [Itraconazole raw powder, Itraconazole]					7.8%	23.2%	35.9%	44.5%
